Data on one molecule can be found in paper PMC3924264.

The chains behind the UniProt entries cited, without tags or fusion partners. Residues count along the entry.
UniProt P22888, residues 27-699: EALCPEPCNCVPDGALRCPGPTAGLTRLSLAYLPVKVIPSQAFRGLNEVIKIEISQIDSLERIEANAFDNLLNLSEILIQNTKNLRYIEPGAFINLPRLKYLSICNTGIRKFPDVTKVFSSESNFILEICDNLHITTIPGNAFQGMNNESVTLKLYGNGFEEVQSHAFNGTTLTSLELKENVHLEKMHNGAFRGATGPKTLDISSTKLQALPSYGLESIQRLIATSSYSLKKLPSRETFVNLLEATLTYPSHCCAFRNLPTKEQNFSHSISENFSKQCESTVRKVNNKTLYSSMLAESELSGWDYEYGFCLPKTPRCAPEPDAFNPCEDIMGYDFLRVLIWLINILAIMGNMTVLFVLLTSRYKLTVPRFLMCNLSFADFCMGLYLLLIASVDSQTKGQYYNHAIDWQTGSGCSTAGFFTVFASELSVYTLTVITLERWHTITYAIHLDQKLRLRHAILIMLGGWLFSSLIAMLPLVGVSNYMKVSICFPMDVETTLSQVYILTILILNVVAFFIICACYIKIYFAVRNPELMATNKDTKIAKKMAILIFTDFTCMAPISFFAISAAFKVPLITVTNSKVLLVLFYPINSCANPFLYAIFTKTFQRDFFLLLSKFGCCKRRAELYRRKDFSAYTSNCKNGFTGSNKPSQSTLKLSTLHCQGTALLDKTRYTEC

No constants are given. Whether binding was seen depends on the method and setting. Binding seen in cells or lysates may run through a third protein. Some binding calls cover weakened binding; strength is not graded here.

In assay [1] the target is FLAG-tagged human luteinizing hormone receptor (human) (UniProt P22888). Kind of assay: co-IP; cells cross-linked with 1 mM DSP for 2 h at 4 °C; lysis in 0.5% Triton, 50 mM Tris-HCl, 140 mM NaCl, 0.5 mM EDTA; FLAG-tagged receptors precipitated overnight on M2-agarose; immunoblot of FLAG and endogenous GIPC. In general terms: A western blot detects proteins with antibodies after separation by electrophoresis.

Assay [2] has as its target FLAG-tagged human β2-adrenergic receptor (human) (UniProt P07550). The description is as above.

B1: GAIP-interacting protein C terminus (protein, UniProt O14908 1-333)
chain: MPLGLGRRKKAPPLVENEEAEPGRGGLGVGEPGPLGGGGSGGPQMGLPPPPPALRPRLVFHTQLAHGSPTGRIEGFTNVKELYGKIAEAFRLPTAEVMFCTLNTHKVDMDKLLGGQIGLEDFIFAHVKGQRKEVEVFKSEDALGLTITDNGAGYAFIKRIKEGSVIDHIHLISVGDMIEAINGQSLLGCRHYEVARLLKELPRGRTFTLKLTEPRKAFDMISQRSAGGRPGSGPQLGTGRGTLRLRSRGPATVEDLPSAFEEKAIEKVDDLLESYMGIRDTELAATMVELGKDKRNPDELAEALDERLGDFAFPDEFVFDVWGAIGDAKVGRY
Take B1: the binding result in assay [1] is reported as “binds”; in assay [2], “no binding”.
